PubChem BioAssay AID1259327 – Drosophila RNAi Screening Center | 2017

Aim: 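Baseline ATP after transmembrane-protein gene knock-down with water vehicle only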
System: Drosophila S2R+ cells
Reagents: long dsRNA against Drosophila genes
Time to read-out: 5 days (water added on day 4, read one day later)
Conditions: water added as vehicle, no metal, one day before read-out
Read-out: 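Luciferase ATP signal per well, normalised to plate mean, duplicate average converted to z-score across plates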
Scale: ATP z-score: higher = more total ATP than typical wells; ATP luminescence: higher = more total ATP
Hit rule: 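Called active when the ATP z-score exceeds 1.5 or falls below -1.5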
Meaning of the calls: active = hit: ATP up or down; inactive = no clear ATP change
The deposit covers about 3,100 reagents; shown is an unselected part. 378 of all reagents (12%) count as active. 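Hits include both directions; z-score sign shows ATP rise or fall; raw luminescence values are not plate-normalised.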 A number with no mark means an inactive call. A plus sign joins genes that one reagent is predicted to hit. Not stated in the record: the amount of reagent.

gene | amplicon | ATP z-score, duplicate mean | ATP luminescence, replicate 1 (RLU) | ATP luminescence, replicate 2 (RLU)
wus | DRSC20278 | -0.354 | 7.04e5 | 6.35e5
wus | DRSC39483 | -0.751 | 4.10e5 | 3.96e5
Tspo + rempA | DRSC00533 | 0.385 | 4.89e5 | 5.24e5
CG14219 | DRSC19576 | -0.125 | 6.54e5 | 8.08e5
CG14219 | DRSC26450 | 1.81 (active) | 8.44e5 | 1.20e6
Serinc | DRSC11296 | -0.386 | 5.51e5 | 8.33e5
CG30339 | DRSC05168 | -0.413 | 8.05e5 | 5.83e5
Ncc69 | DRSC10412 | -1.07 | 6.01e5 | 6.32e5
Ncc69 | DRSC23572 | 0.46 | 9.14e5 | 8.45e5
COX7AL | DRSC25198 | -0.271 | 8.36e5 | 7.48e5
brv1 | DRSC11076 | 1.23 | 1.14e6 | 9.81e5
Toll-4 | DRSC03458 | 0.0771 | 7.40e5 | 7.29e5
Toll-4 | DRSC39440 | 0.571 | 4.88e5 | 4.93e5
M6 | DRSC11869 | -0.966 | 8.20e5 | 7.21e5
M6 | DRSC39840 | -0.854 | 4.37e5 | 4.00e5
Sdc | DRSC04654 | -1.16 | 6.38e5 | 5.68e5
mthl3 | DRSC06997 | 1.01 | 8.02e5 | 8.77e5
mthl3 | DRSC24927 | -1.11 | 6.61e5 | 7.63e5
SMSr | DRSC10999 | -0.313 | 8.82e5 | 8.29e5
sdk | DRSC18831 | 0.812 | 7.99e5 | 7.80e5
sdk | DRSC39522 | -0.216 | 4.90e5 | 3.90e5
Cln7 | DRSC11005 | 0.723 | 8.21e5 | 7.95e5
GrlHz | DRSC04424 | -0.331 | 6.53e5 | 7.40e5
GrlHz | DRSC39675 | 0.552 | 4.78e5 | 5.29e5
path | DRSC10361 | 0.173 | 1.03e6 | 8.13e5
path | DRSC39838 | 2.15 (active) | 6.02e5 | 6.59e5
tw | DRSC18537 | -0.0612 | 7.14e5 | 6.85e5
tw | DRSC39796 | -0.923 | 4.01e5 | 4.28e5
CG4465 | DRSC15584 | 0.221 | 3.02e5 | 8.03e5
CG4465 | DRSC39564 | 1.41 | 5.15e5 | 6.10e5
Zip89B | DRSC16128 | 0.56 | 3.25e5 | 8.22e5
Zip89B | DRSC29691 | -0.475 | 7.87e5 | 7.46e5
Fs(2)Ket | DRSC03328 | -4.04 (active) | 1.74e5 | 2.20e5
Fs(2)Ket | DRSC23439 | -3.79 (active) | 4.74e5 | 2.84e5
Zip42C.1 | DRSC05003 | -0.212 | 5.77e5 | 6.24e5
PGRP-SC1b | DRSC07215 | 0.569 | 7.76e5 | 8.08e5
Mvl | DRSC16752 | 0.0966 | 7.65e5 | 6.68e5
Mvl | DRSC39671 | -0.473 | 3.99e5 | 4.68e5
Amt | DRSC16055 | 0.211 | 3.25e5 | 7.42e5
Amt | DRSC27970 | -0.664 | 1.02e6 | 1.18e6
GluRIIA | DRSC03334 | -0.0456 | 7.34e5 | 7.09e5
CNT1 | DRSC06082 | 0.538 | 5.35e5 | 8.02e5
CNT1 | DRSC29671 | -0.609 | 7.73e5 | 7.28e5
Tsp42Ec | DRSC06192 | 0.866 | 8.56e5 | 5.39e5
Tsp42Ec | DRSC26768 | -0.997 | 1.00e6 | 9.83e5
CG18549 | DRSC15347 | -0.676 | 2.78e5 | 6.64e5
CG18549 | DRSC28847 | -0.161 | 7.89e5 | 8.16e5
CG31213 | DRSC14312 | -0.388 | 6.56e5 | 7.48e5
CG31213 | DRSC15647 | 0.737 | 3.13e5 | 8.91e5
CG7582 | DRSC16261 | 0.398 | 6.75e5 | 7.55e5
CG7582 | DRSC39773 | -0.795 | 4.02e5 | 4.46e5
CG12446 | DRSC20618 | -0.167 | 7.01e5 | 7.49e5
pcx | DRSC18188 | -0.339 | 6.80e5 | 7.33e5
pcx | DRSC18189 | -2.09 (active) | 6.66e5 | 6.85e5
Tehao | DRSC03449 | -0.394 | 6.79e5 | 6.90e5
Tehao | DRSC39803 | 0.931 | 4.89e5 | 6.03e5
ppk24 | DRSC15093 | -1.13 | 5.13e5 | 7.48e5
ppk24 | DRSC39805 | -0.197 | 4.25e5 | 5.08e5
CG5880 | DRSC15906 | 0.264 | 7.71e5 | 6.96e5
CG5880 | DRSC39828 | -0.415 | 4.69e5 | 4.29e5
Nha1 | DRSC02109 | 0.805 | 5.12e5 | 5.60e5
Nha1 | DRSC39661 | -0.199 | 4.61e5 | 4.42e5
CG30379 | DRSC05070 | 1.18 | 8.60e5 | 8.81e5
CG30379 | DRSC39783 | -0.781 | 4.08e5 | 4.41e5
sing | DRSC19530 | -1.43 | 5.62e5 | 6.13e5
sing | DRSC39652 | -1.69 (active) | 3.49e5 | 3.52e5
Sras | DRSC11287 | -0.216 | 8.87e5 | 8.49e5
Ctr1C | DRSC15089 | -1.05 | 7.07e5 | 7.53e5
Ctr1C | DRSC39456 | 0.771 | 5.47e5 | 4.63e5

Looked up above:
Result for sing [DRSC19530] in “ATP z-score, duplicate mean”: -1.43
Tehao [DRSC39803], ATP z-score, duplicate mean: 0.931
Entry of Zip89B [DRSC16128] under “ATP z-score, duplicate mean”: 0.56
CG12446 [DRSC20618], ATP luminescence, replicate 2 (RLU) → 7.49e5
Zip42C.1 [DRSC05003], ATP z-score, duplicate mean: -0.212
Entry for Amt [DRSC27970] under “ATP z-score, duplicate mean”: -0.664
